This assay concerns JAK signaling. Nature of the assay: JAK selectivity assay, HEK blue IL-12 reporter. It is filed as cell-based. Conditions: 24 h, 12.5 ng/ml IL-12, 24 h. On the procedure: The cells were purchased from Invivogen (Catalog Nr: hkb-il12) and maintained according to vendor instructions. On the day of the experiment, cells were harvested by repeated tapping of the flask to shake loose the cells attached to the bottom of the flask. Then, cells were harvested, washed and resuspended in DMEM media supplemented with 10% fetal calf serum. 30 Microliters of cell suspension was seeded into a 384-well tissue culture-coated plate containing approximately 10,000 total cells. […] Using the ECHO “Dose Response” software, the test compound was added in duplicate wells with a 3-fold dilution curve. DMSO was back-filled to normalize the DMSO across all wells. […] After 30 minutes of incubation at room temperature, the optical density was measured at 620 nanometer using the Perkin Elmer Envision plate reader. A color change can be detected at this wavelength when secreted alkaline phosphatase, which is triggered by IL-12 signaling, is present in the supernatant. […]

IC50 data for 1 molecule are collected here from patent US20240197729A1, “ALK-5 Inhibitors and Uses Thereof” (Sumitomo Pharma Oncology, Inc., priority 2021, published 2024).

Molecule `C[C@@H]1CCN(C(=O)CC#N)C[C@@H]1N(C)c1ncnc2[nH]ccc12` [Tofacitinib, tofacitinib] gave an IC50 below 300 nM.

A word on the IC50: it is the point on the concentration scale where inhibition reaches its midpoint. A high value points to weaker potency in that assay.
